US20100158904A1 (GLENMARK PHARMACEUTICALS S A, published 2010)
No constants are given. Whether binding was seen depends on the method and setting. Some entries that bind do so weakly or less than the wild type.

By UniProt entry, the sequences of proteins in these tests, tags left out. Where a name states a change or a piece, a line headed by the entry shows the natural chain unless it says otherwise.
UniProt P02452: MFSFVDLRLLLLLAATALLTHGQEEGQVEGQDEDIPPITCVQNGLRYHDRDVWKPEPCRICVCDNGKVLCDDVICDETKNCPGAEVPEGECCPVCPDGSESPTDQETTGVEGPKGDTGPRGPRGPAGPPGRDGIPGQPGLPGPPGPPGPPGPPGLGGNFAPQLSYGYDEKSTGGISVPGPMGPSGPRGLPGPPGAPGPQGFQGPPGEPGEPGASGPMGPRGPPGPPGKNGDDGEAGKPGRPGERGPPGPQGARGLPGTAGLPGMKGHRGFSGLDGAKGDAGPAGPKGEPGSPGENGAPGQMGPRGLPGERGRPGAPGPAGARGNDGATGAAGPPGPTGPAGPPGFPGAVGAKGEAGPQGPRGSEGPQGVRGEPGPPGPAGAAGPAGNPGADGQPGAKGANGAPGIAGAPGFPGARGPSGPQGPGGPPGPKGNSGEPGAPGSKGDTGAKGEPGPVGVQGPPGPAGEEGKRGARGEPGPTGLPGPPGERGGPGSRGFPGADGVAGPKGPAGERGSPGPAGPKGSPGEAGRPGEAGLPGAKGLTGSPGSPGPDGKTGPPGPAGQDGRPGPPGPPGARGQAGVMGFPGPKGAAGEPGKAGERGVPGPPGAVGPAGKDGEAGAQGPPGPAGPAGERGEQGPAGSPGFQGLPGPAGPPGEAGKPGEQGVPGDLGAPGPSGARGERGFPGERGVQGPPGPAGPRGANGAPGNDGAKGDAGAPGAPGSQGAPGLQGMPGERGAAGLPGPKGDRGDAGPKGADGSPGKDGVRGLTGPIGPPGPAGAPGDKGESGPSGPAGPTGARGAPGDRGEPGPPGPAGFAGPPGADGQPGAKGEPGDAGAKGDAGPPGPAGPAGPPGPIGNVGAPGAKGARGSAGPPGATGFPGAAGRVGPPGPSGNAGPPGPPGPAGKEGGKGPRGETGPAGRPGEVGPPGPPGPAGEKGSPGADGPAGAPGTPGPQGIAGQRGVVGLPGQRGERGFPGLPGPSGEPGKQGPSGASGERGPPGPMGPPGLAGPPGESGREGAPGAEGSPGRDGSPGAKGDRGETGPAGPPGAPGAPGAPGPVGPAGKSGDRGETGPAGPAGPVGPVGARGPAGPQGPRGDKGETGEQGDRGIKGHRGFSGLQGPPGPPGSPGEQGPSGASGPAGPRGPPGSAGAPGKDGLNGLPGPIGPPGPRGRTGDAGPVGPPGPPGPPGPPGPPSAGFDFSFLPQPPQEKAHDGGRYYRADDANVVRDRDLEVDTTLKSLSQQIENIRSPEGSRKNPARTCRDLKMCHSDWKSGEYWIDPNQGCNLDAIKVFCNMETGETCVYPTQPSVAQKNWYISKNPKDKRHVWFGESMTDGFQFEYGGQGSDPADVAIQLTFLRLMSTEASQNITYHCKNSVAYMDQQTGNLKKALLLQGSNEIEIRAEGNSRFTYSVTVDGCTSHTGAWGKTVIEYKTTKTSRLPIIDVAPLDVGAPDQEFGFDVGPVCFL
UniProt P08123: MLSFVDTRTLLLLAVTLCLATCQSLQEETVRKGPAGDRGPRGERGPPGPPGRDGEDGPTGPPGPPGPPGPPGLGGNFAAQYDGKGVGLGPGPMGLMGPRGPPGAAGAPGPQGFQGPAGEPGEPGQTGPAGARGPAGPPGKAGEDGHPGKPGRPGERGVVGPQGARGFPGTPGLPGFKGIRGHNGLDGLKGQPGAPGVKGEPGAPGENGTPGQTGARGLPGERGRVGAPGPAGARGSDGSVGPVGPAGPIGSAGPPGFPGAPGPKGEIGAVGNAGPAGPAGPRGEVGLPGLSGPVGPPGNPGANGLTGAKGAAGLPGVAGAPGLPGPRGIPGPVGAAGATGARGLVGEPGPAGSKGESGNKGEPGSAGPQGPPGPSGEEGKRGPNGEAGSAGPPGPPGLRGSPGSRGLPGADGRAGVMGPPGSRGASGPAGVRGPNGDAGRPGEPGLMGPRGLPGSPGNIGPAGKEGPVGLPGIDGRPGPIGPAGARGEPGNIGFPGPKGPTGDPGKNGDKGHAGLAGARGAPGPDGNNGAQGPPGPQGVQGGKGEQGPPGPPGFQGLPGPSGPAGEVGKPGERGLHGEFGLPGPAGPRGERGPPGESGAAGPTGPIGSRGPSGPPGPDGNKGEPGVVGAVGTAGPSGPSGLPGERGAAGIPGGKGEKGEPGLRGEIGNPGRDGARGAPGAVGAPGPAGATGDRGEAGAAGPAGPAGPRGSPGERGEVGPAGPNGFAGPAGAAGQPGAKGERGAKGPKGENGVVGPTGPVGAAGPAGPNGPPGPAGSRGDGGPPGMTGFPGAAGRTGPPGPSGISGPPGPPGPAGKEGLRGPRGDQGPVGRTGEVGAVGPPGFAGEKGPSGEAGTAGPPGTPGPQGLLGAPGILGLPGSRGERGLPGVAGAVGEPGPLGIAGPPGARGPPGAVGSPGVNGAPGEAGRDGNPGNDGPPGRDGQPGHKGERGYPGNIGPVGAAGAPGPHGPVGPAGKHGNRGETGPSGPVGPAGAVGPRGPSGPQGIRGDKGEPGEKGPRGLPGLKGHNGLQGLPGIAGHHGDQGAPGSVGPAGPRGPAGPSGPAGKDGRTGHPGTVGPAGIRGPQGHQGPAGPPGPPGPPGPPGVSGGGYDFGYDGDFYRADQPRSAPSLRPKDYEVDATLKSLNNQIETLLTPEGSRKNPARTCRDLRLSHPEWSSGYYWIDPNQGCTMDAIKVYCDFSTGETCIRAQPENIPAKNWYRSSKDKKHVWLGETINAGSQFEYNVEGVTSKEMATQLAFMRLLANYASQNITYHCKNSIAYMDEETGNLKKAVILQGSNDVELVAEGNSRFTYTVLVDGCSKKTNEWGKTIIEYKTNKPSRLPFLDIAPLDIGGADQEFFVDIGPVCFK
UniProt P17301: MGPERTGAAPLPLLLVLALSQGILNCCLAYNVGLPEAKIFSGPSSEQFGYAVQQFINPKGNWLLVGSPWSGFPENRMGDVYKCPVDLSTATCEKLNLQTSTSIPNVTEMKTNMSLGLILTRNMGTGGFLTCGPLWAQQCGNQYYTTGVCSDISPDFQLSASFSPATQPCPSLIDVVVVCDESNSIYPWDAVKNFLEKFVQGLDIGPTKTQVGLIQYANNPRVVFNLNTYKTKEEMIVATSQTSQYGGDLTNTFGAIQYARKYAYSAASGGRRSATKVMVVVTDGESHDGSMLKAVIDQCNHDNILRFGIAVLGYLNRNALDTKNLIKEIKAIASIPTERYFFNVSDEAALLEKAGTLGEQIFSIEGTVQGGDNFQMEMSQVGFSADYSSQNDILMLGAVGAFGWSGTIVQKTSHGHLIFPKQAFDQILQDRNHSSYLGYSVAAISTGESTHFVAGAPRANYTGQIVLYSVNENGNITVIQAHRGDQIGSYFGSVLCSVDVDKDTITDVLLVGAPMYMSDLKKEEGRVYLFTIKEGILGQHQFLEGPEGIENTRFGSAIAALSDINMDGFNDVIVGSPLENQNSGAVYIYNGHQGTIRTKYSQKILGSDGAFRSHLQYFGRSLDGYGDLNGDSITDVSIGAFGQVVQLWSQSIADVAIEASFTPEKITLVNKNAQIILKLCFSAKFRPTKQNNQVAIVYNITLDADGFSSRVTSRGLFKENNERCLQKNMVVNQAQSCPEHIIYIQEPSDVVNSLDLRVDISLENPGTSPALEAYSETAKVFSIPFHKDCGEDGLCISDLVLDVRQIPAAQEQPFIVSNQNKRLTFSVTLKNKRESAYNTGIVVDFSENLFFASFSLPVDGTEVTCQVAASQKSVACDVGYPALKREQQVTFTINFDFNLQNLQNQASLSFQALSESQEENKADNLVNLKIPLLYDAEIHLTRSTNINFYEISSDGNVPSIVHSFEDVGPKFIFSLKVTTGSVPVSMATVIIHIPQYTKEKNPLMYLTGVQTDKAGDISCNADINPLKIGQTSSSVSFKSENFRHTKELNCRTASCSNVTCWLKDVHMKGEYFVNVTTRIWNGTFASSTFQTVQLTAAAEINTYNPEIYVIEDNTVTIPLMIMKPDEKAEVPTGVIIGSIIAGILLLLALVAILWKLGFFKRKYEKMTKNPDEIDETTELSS

Columns and labels:
[1] = target: T1, human collagen type I (human) (UniProt P02452+P08123); experiment: adhesion of CFSE-labelled cells to collagen-coated plates
[2] = target: T1, human collagen type I (human); experiment: adhesion of CFSE-labelled HT-1080 cells to collagen-coated plates

- binding [1]: binds
- binding [2]: binds
Substance: human α2β1 integrin (VLA-2) expressed on human cancer cell lines (from UniProt P17301 30-1181; P05556 21-798) (receptor)
